# Hit rate of the full screen: of about 340,000 compounds, about 170 (0.05%) were called active. The inconclusive results got no clear call from the source; some entries with a clear call stand among them for comparison. The call rests on the fitted dose curve; in most records, active means well fitted inhibition curve with a large enough effect in the signal ratio, with a control signal flat (not every such curve was filed as active); inconclusive means small, poorly fitted or top-dose-only effect, or effect the other way, or a change in a side signal; inactive means flat fitted curve, though single readings scatter; the % refers to the signal ratio. Potencies beside an inconclusive call are fits to weak or partial responses and may not hold up.
# Experiment: qHTS Assay to Find Inhibitors of Chronic Active B-Cell Receptor Signaling;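 on activity change, negative = inhibition: plate controls were basal doxycycline-induced cells for no effect and cells given 10 µM MG132 for full effect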
# Conditions: ABC-DLBCL IkBa-CBG/CBR reporter, luminescence ratio (green luciferase fused to IkBa over red control in TMD8 lymphoma cells), 4 h; activity change, negative = inhibition: at 46.1 µM (top of the series)
# In short: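 Concentration-response series (up to 46 uM) were applied to TMD8 dual-reporter cells for 4 h at 37C with doxycycline. Green/red ratio, after filter-overlap correction, defined %Activity; red signal alone was normalised to basal cells and zero luminescence.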
# Potency means the concentration at half of the fitted maximal effect.
Compound,Potency,"activity change, negative = inhibition"
CCOC(=O)/C=c1\s/c(=C\c2c(OC)ccc3ccccc23)c(=O)n1CC(=O)NCC1CCCO1 (configuration not stated),"inconclusive: 16.4 µM [falling, single point]",
CC1CCCC(NC(=O)COC(=O)/C=C/c2ccco2)C1C (configuration not stated),,inconclusive: -0.47%
COc1cc2c(cc1OC)CN(C(=O)CSc1nc(N)c(C#N)cc1C#N)CC2,,inactive: 10.4%
Cc1cccc(NC(=O)c2ccccc2SCc2ccc(F)cc2)n1,,inactive: 0.54%
CCOC(=O)N/N=C/c1cn(Cc2ccc(Cl)cc2)c2ccccc12,,inconclusive: 2.42%
COc1ccc(CC(NC(C)=O)C(=O)NC2CCN(C(=O)Nc3ccc(Cl)cc3)CC2)cc1OC (configuration not stated),,inconclusive: 9.98%
COc1cc(C(=O)Nc2cc(-c3nc4cc(C)ccc4o3)ccc2C)cc(OC)c1OC,,inconclusive: 0.128%
O=[N+]([O-])c1ccc(SCCO)nc1SCCO,,inconclusive: -19%
COc1ccc(CCN2C(=O)CC(NNC(=O)c3ccc(F)cc3)C2=O)cc1OC (configuration not stated),"inconclusive: 29.1 µM [falling, partial curve, poor fit]",
Cn1c(/C(C#N)=C/c2ccc(O)cc2)nc2ccccc21,,inconclusive: -9.03%
COc1ccc(/C=N/N2CCN(c3ccc(Cl)cc3)CC2)cc1O,,inconclusive: -4.9%
CCN1CCN(S(=O)(=O)CC2(C)C3CCC2(C)C(=O)C3Br)CC1 (configuration not stated),,inconclusive: 12.5%
COc1cccc(Nc2nc3ccc(C(=O)c4ccccc4)cc3n3cnnc23)c1,,inconclusive: -9.24%
Cc1c(C(=O)Nc2ccncc2)sc2nc(-c3ccc(F)cc3)cn12,,inactive: -6.75%
COc1ccc(CCNC(=O)COC(=O)c2cc(=O)[nH]c3ccccc23)cc1,,inactive: 4.93%
CCC(C(=O)c1ccc2ncccc2c1)c1ccccc1 (configuration not stated),,inconclusive: 6.7%
COc1ccc(C(CNC(=O)Cc2cccs2)N(C)C)cc1 (configuration not stated),,inactive: 3.01%
CN(C)S(=O)(=O)c1cccc(NC(=O)c2cc3ccccc3o2)c1,,inconclusive: 2.81%
O=C(c1ccco1)N1CCc2ccccc21,"inconclusive: 2.51 µM [falling, full curve, poor fit]",
CNC(=O)c1nnsc1S(=O)(=O)c1ccc(Cl)cc1,"inconclusive: 7.08 µM [rising, partial curve, poor fit]",
Cc1ccc(S(=O)(=O)N(C)c2ccc(C(=O)Nc3ccccc3C(=O)N3CCOCC3)cc2)cc1,,inactive: 2.46%
O=C1/C(=C/c2ccco2)SC(=S)N1c1cccnc1,,inactive: 0.141%
COC(=O)c1cc(C)sc1NC(=O)C1CC=CCC1C(=O)O (configuration not stated),"inconclusive: 32.6 µM [rising, single point]",
COc1ccc(C(=O)NC(=S)N2CC(C)OC(C)C2)cc1OC (configuration not stated),,inactive: -5.2%
COc1cccc(C(=O)Nc2ccc3c(c2)C(=O)c2ccccc2C3=O)c1,,inconclusive: 0.255%
CN(C)C1CCN(Cc2cc(COCc3ccccc3)c3cccnc3c2O)C1 (configuration not stated),,inactive

Compound,Potency,"activity change, negative = inhibition"
O=C(COC(=O)c1ccc(F)c(S(=O)(=O)N2CCOCC2)c1)c1ccc(Br)cc1,,inconclusive: -8.27%
Cc1ccc(/C=N/Nc2nc(C)cc(C)n2)cc1,,inactive: 11.9%
Cn1c(SCC(=O)Nc2ccc3nc(SCC(=O)NC4CC4)sc3c2)nnc1-c1ccccc1,"inconclusive: 32.6 µM [falling, single point]",
CCOC(=O)C1CCN(Cc2cnc(Oc3ccc(Cl)cc3C)s2)CC1,"inconclusive: 11.2 µM [falling, partial curve]",
OC(c1ccccc1)c1nccn1Cc1ccccc1 (configuration not stated),"inconclusive: 0.103 µM [falling, full curve, poor fit]",
O=C(N/N=C/c1ccc(OCC(=O)N2CCCCC2)cc1)c1ccccc1O,"inconclusive: 18.4 µM [falling, partial curve]",
CCC(=O)Nc1ccc(NC(=O)c2cccc(OC)c2)nc1,"inconclusive: 4.11 µM [falling, partial curve]",
COc1ccccc1/C=C/C=N/NC(=O)c1ccco1,"inconclusive: 3.98 µM [rising, partial curve, poor fit]",
O=C(CCN1CCCCC1)N/N=C/c1c[nH]c2ccccc12,,inconclusive: 4.58%
CC(C#N)Sc1nc2ccccc2c(=O)n1-c1ccccc1 (configuration not stated),,inconclusive: -0.94%
Cc1[nH]c2ccccc2c1/C=C(\C#N)C(=O)NCc1ccccc1,,inconclusive: -13.6%
COc1ccc2nc(NC(=O)C3CCCN3S(=O)(=O)c3ccc(C)cc3)sc2c1 (configuration not stated),"inconclusive: 25.1 µM [falling, single point]",
O=C(O)c1ccccc1-n1cccc1C(=O)O,,inconclusive: -24.1%
CCOC(=O)/C=C/C(=O)Nc1cc(S(=O)(=O)Nc2ccc(OC)cc2)ccc1N1CCOCC1,"inconclusive: 2.31 µM [falling, partial curve, poor fit]",
Cc1ccc(NC(=O)C(C)N2C(=O)C3C4CC(C(Br)C4Br)C3C2=O)cc1 (configuration not stated),,inconclusive: 0.349%
CSc1ccccc1NC(=O)COc1ccc(Cl)cc1,"inconclusive: 23.1 µM [falling, partial curve]",
COc1ccc(NC(=S)NC(=O)Cc2ccccc2)c(OC)c1,,inactive: -1.2%
CCOc1ccccc1NC(=S)NC(=O)C1CCCCC1,,inactive: -5.68%
O=C(CSc1n[nH]c(-c2ccncc2)n1)Nc1ccccc1,,inactive: -17.4%
CC(=O)N1Cc2ccccc2CC1C(=O)O (configuration not stated),,inconclusive: 10.7%
CC(/C=N/NC(=O)c1cccs1)=C\c1ccco1,"inconclusive: 15.8 µM [falling, partial curve]",
Clc1ccc(Cn2c(/C=C/c3ccco3)nc3ccccc32)cc1,,inconclusive: 1.42%
O=C(COc1ccccc1[N+](=O)[O-])N(Cc1cccc(Br)c1)C1CCS(=O)(=O)C1 (configuration not stated),"inconclusive: 8.91 µM [falling, partial curve]",
O=C(O)C1CCCN1S(=O)(=O)c1cc(Cl)ccc1Cl (configuration not stated),,inactive: -0.0911%
O=C(O)C1CC=CCC1C(=O)N1CCN(c2nc(-c3ccccc3Cl)c3cc(Br)ccc3n2)CC1 (configuration not stated),,inactive: -4.08%
COc1ccccc1-c1cc(-c2ccc(C)cc2)nc(SCc2nnc(-c3ccccc3)o2)c1C#N,,inconclusive: 12.8%

# Taken from above.
# activity change, negative = inhibition, `Cc1ccc(NC(=O)C(C)N2C(=O)C3C4CC(C(Br)C4Br)C3C2=O)cc1` (configuration not stated) is entered as inconclusive: 0.349%
# Potency, `CCC(=O)Nc1ccc(NC(=O)c2cccc(OC)c2)nc1` is entered as inconclusive: 4.11 µM [falling, partial curve]
# activity change, negative = inhibition, `O=C(O)c1ccccc1-n1cccc1C(=O)O` is entered as inconclusive: -24.1%
# Potency, `CCOC(=O)/C=C/C(=O)Nc1cc(S(=O)(=O)Nc2ccc(OC)cc2)ccc1N1CCOCC1` is entered as inconclusive: 2.31 µM [falling, partial curve, poor fit]
